Source: PubChem BioAssay AID1159593 (NIAID, 2016)

Assay: 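TLR pathway parts governing NF-kappaB p65 translocation after LPS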
Cell system: RAW264.7 macrophages of mouse, with reporters for p65 (GFP) and the Tnf promoter (mCherry)
Reagents: single siRNA against mouse genes
Duration: 48 to 72 hours after siRNA transfection, then LPS for 40 min
Conditions: LPS (Salmonella minnesota R595) for 40 min before fixation; dose not given
Detection: 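Imaged nuclear over cytoplasmic GFP-p65 intensity after 40 min LPS, normalised per plate by median and MAD, robust z-score versus negative controls, mean of replicates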
Scale: p65 translocation z-score: higher = more nuclear NF-kappaB p65 after LPS
Rule for the call: 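Activity score grows with absolute z: 25 beyond 1, 50 beyond 1.5, 75 beyond 2, 100 beyond 2.5; active calls here sit at about z 1.5 or more either way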
Meaning of the calls: active = changed p65 translocation (either direction); inactive = no clear change
The whole screen tested 756 reagents; shown is a part drawn at random. 137 of all reagents (18%) count as active. 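Active means p65 translocation went either up or down; genes were judged on the median of six siRNAs, not single siRNAs.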 Unmarked entries are inactive. The numbers tell different reagents against one gene apart. Not given: the amount of reagent.

Target gene	reagent no.	p65 translocation z-score
Tnf	1	-0.577
Tnf	2	-0.162
Tnf	3	-0.398
Tnf	4	-1.03
Tnf	5	-0.368
Tnf	6	-1.04
Egr1	1	0.356
Egr1	2	-1.54 (active)
Egr1	3	-1.18
Egr1	4	0.0878
Egr1	5	0.164
Egr1	6	-0.257
Irak4	1	0.494
Irak4	2	-3.14 (active)
Irak4	3	-2.05 (active)
Irak4	4	-0.894
Irak4	5	1.25
Irak4	6	-1.69 (active)
Ly96	1	-0.422
Ly96	2	-2.92 (active)
Ly96	3	-0.838
Ly96	4	-2.28 (active)
Ly96	5	-0.619
Ly96	6	-1.1
Mapk8	1	1.17
Mapk8	2	-0.509
Mapk8	3	0.156
Mapk8	4	-0.351
Mapk8	5	-0.899
Mapk8	6	-0.891
Nfkbie	1	-1.98 (active)
Nfkbie	2	-0.603
Nfkbie	3	-0.964
Nfkbie	4	-1.54 (active)
Nfkbie	5	-1.62 (active)
Nfkbie	6	-0.624
Tlr7	1	-0.709
Tlr7	2	-2.6 (active)
Tlr7	3	1.03
Tlr7	4	-0.51
Tlr7	5	0.601
Tlr7	6	0.288
Irf9	1	-0.585
Irf9	2	-1.4
Irf9	3	0.624
Irf9	4	-0.21
Irf9	5	0.0307
Irf9	6	-1.91 (active)

Look-ups from the list.
Tnf #2, p65 translocation z-score → -0.162
For “p65 translocation z-score”, Nfkbie #5 is entered as -1.62 (active)
Mapk8 #1, p65 translocation z-score: 1.17
